These are yes or no findings as the source states them, for the method shown. Binding seen in cells or lysates may run through a third protein. Binding can be weak; no strength is given.
Target: β-COP (human (endogenous in CEM)) (UniProt P53618)
Experiment: co-IP; CEM T cells transduced with adenovirus (Figure 7C) or concentrated MSCV (Figure 8E), 20 mM NH4Cl for 16 hours, not cross-linked; lysed in 1% digitonin, 100 mM NaCl, 50 mM Tris pH 7.0, 1 mM CaCl2, 1 mM MgCl2; precipitated with anti-β-COP M3A5 cross-linked to beads; western blot for Nef

Chains of the proteins cited; added tags and fusions are not shown.
UniProt P53618: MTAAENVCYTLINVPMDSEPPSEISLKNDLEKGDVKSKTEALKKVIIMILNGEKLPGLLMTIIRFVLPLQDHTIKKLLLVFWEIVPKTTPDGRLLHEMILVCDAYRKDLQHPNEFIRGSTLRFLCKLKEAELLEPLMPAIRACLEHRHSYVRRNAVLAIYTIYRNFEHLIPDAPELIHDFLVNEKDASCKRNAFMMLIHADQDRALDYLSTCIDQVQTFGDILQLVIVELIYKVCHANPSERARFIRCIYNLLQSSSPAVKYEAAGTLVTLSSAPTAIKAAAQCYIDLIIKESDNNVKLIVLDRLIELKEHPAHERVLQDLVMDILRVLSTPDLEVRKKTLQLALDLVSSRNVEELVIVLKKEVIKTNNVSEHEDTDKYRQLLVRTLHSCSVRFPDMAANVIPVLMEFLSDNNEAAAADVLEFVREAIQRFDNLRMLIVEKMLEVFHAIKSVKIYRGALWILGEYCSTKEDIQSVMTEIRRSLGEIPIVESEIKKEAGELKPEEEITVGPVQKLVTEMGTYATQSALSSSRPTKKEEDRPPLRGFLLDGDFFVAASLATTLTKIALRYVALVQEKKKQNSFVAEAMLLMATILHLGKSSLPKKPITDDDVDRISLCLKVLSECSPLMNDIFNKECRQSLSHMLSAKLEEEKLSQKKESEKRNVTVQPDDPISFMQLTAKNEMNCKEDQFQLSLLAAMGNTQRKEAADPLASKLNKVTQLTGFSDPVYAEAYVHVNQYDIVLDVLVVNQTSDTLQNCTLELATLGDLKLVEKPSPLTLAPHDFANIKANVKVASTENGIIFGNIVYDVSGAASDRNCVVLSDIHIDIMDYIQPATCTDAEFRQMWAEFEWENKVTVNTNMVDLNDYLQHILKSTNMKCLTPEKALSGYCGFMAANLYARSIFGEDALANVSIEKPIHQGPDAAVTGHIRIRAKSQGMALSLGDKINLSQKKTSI

In the case of “HIV-1 Nef M20A (adenoviral) (from UniProt P03406)”, the binding is reported as “binds”.

From PMC2515349
